According to US8834635B2, “Degreasing compositions derived from levulinic acid (a compound obtainable from biomass) and process for degreasing metal surfaces” (Institut Univ. de Ciencia Tecnologia, S.A., priority 2011, dated 2014):

Experiment: Degreasing of sinterized metal parts followed by solvent evaporation
Conditions: 3 h

| SMILES | Percentage of mass loss (%) (Immersion, 110° C., evaporation 120° C.) | Percentage of mass loss (%) (Ultrasound, 58° C., evaporation 3 h at 120° C., P < 1 mmHg) |
| --- | --- | --- |
| ClC=C(Cl)Cl [Trichloroethylene, reference compound] | 0.93 | – |
| CCCCOC(=O)CCC(C)=O [LAOC-4, Butyl levulinate] | – | 0.97 |
